Measured values reported in patent publication US11186640B2, “Method for the identification of immunotherapy-drug combinations using a network approach” (THE UNIVERSITY OF WESTERN AUSTRALIA, priority 2014, dated 2021).
“Also recorded” adds a separate entry of the source. At least one structure is not confirmed: it was looked up by name or label, or the drawing left a doubt.

System: AB1-HA mesothelioma
Assay: in vivo co-treatment with anti-CTLA-4 in AB1-HA tumour bearing mice
Set-up: species or system BALB/c mice
Conditions: mouse

In the case of `COc1ccc2c3c1O[C@H]1C[C@@H](O)C=C[C@@]31CCN(C)C2` [galantamine], the “anti-tumour response / response rate to anti-CTLA-4 on co-treatment” value is reported as “clear effect; also recorded: increased anti-tumour response”.
